Literature values, collected in patent US20200246485A1, “METHOD FOR GENERATING A DIHYDROMYRICETIN (DHM) FORMULATION” (82 LABS INC, priority 2019, published 2020).

What was measured:
[1] = design: key: ability to form inclusion complexes, as indicated by a “+”; conditions: guest substance with β-CD; cited from earlier work
[2] = design: key: ability to form inclusion complexes, as indicated by a “+”; conditions: guest substance with γ-CD; cited from earlier work
[3] = design: key: ability to form inclusion complexes, as indicated by a “+”; conditions: guest substance with α-CD; cited from earlier work

| SMILES | ability to form inclusion complexes with β-CD [1] | ability to form inclusion complexes with γ-CD [2] | ability to form inclusion complexes with α-CD [3] |
| --- | --- | --- | --- |
| c1ccc2ccccc2c1 [Naphthalene] | + | + |  |
| C1CCCCC1 [Cyclohexane] | + | + | + |
| CCCC(=O)O [Butyric acid] | + |  | + |
| [Xe] [Xenon] |  |  | + |
| c1ccc2cc3ccccc3cc2c1 [Anthracene] |  | + |  |
| CCC(=O)O [Propionic acid] |  |  | + |
